# Assay results published in patent publication US11332499B2 (Regents of the University of Minnesota, priority 2018, dated 2022).
# Experiment: general procedure: Fmoc solid-phase peptide synthesis; H-Pro-2-chlorotrityl resin (0.68 to 0.76 meq/g); HBTU/DIEA; cyclisation with BOP/HOBt
# Conditions: whole synthesis, 214 nm, scale of the general procedure 0.05 mmol
# [1] = analytical RP-HPLC, two solvent systems
Substance,final HPLC purity [%],also measured
c[Pro-Arg-Phe-Phe-Dap-Ala-Phe-DPro],>98,
cyclo(PRFFNEF[dP]),>98,
c[Pro-Arg-DPhe-Phe-Asn-Ala-Phe-DPro],,final HPLC purity [1]: >99%
cyclo(PRFFNDF[dP]),>99,
c[Pro-DArg-Phe-Phe-,,final HPLC purity [1]: >95%
c[Pro-Arg-Phe-Phe-Asn-Phe-The-DPro],>97,
c[Pro-Arg-Phe-Phe-Glu-Ala-Phe-DPro],>99,
c[Pro-Arg-Phe-Phe-Asn-Ala-Lys-DPro],,final HPLC purity (TFA salt): >98%
c[Pro-Arg-Phe-Phe-Nle-Ala-Phe-DPro],>99,
c[Pro-Arg-Phe-Phe-Asn-Ala-Cha-DPro],,final HPLC purity (TFA salt): >98%
c[Pro-Arg-Phe-Phe-Asn-Ala-Phe-DPro],>99,
c[Pro-Arg-Phe-Phe-Asn-Ala-hPhe-DPro],,final HPLC purity (TFA salt): >98%
c[Pro-Arg-Phe-Phe-Abu-Ala-Phe-DPro],>98,
c[Pro-DArg-Phe-DPhe-Asn-Ala-Phe-DPro],,final HPLC purity [1]: >99%
c[Pro-Arg-Phe-Phe-Phe-Ala-Phe-DPro],>98,
cyclo(PRFFNKF[dP]),>99,
c[Pro-Arg-Phe-Phe-Asn-Ala-Tyr-DPro],,final HPLC purity (TFA salt): >98%
cyclo(PRFFNAD[dP]),,final HPLC purity (TFA salt): >95%
c[Pro-Arg-Phe-Phe-Asn-Ala-Nle-DPro],,final HPLC purity (TFA salt): >95%
c[Pro-DArg-DPhe-Phe-Asn-Ala-Phe-DPro],,final HPLC purity [1]: >96%
c[Pro-DArg-DPhe-DPhe-Asn-Ala-Phe-DPro],,final HPLC purity [1]: >99%

Substance,final HPLC purity [%],also measured
cyclo(PRFFTAF[dP]),>99,
c[Pro-Arg-Phe-Phe-Asn-Ala-Gly-DPro],,final HPLC purity (TFA salt): >95%
c[Pro-Arg-Ine-Ine-Asn-Gly-Phe-DPro],>96,
c[Pro-Arg-Ptie-Phe-Asn-His-Phe-DPro],>99,
cyclo(PRFFNAA[dP]),>97,
cyclo(PRFFWAF[dP]),>97,
c[Pro-Arg-DPhe-DPhe-Asn-Ala-Phe-DPro],,final HPLC purity [1]: >98%
c[Pro-Arg-Phe-Phe-Ser-A1a-Phe-DPro],>99,
c[Pro-Arg-Phe-Phe-Val-Ala-Phe-DPro],>99,
c[Pro-Arg-Phe-Phe-Ala-Ala-Phe-DPro],>99,
c[Pro-DArg-Phe-Phe-Asn-Ala-Phe-DPro],,final HPLC purity [1]: >97%
cyclo(PRFFNLF[dP]),>98,
c[Pro-Arg-Phe-Phe-Asn-Ala-Trp-DPro],,final HPLC purity (TFA salt): >98%
c[Pro-Arg-Phe-DPhe-Asn-Ala-Phe-DPro],,final HPLC purity [1]: >99%
c[Pro-Arg-Phe-Phe-Asn-Ala-Ser-DPro],,final HPLC purity (TFA salt): >98%
c[Pro-Arg-Phe-Phe-DDap-Ala-Phe-DPro],>95,
c[Pro-Arg-Phe-Phe-Asp-Ala-Phe-DPro],>99,
c[Pro-Arg-Phe-Phe-Asn-Ala-Leu-DPro],,final HPLC purity (TFA salt): >98%
c[Pro-Arg-Phe-Phe-His-Ala-Phe-DPro],>96,
cyclo(PRFFLAF[dP]),>99,
c[Pro-Arg-Phe-Phe-Asa-Ser-Phe-DPro],>96,

# Square brackets hold non-standard residues; d marks the D form.
